The full ranking holds about 33,000 sequences; the median of “E-score (-0.5 to 0.5)” is about -8e-05, and the highest 2% start at about 0.23. The list shows a part of the results.
target: T1, Nrg2 (UniProt P38082); assay: PBM E-score (8-mer binding enrichment) (E-score (-0.5 to 0.5)); higher = stronger / more preferred TF binding; details: protein concentration: 100 nM; construct: GST-full length
T1 sequence: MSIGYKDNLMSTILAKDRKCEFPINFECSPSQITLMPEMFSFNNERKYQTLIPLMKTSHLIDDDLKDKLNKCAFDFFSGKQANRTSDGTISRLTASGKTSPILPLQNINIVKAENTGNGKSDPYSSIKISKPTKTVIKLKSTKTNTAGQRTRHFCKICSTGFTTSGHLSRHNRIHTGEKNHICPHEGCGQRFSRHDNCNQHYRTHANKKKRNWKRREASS
In short: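 The E-score, a modified Wilcoxon-Mann-Whitney statistic, was computed by the Universal PBM Analysis Suite for every ungapped eight-base word pooled with its reverse complement. Scans behind it were normalised with masliner after bound GST-tagged yeast transcription factors were detected with fluorescent anti-GST. The proteins, at about 100-200 nM, had been applied to universal all-10-mer Agilent arrays made double-stranded by primer extension.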

Sequence | PBM E-score
ATTATCTA | 0.155
GTTATGCA | -0.0185
GACATGTC | -0.225
GAAGGCGA | -0.139
ATCATACC | 0.00359
AAAAGAGC | -0.00644
CGTAACTA | -0.117
ATGTAGGA | -0.153
CGGTTTTC | 0.0834
ATCGACAT | 0.0675
AGTATATC | 0.107
CGTTCGGC | -0.0354
CGCATTAC | 0.0587
GCTGCACC | -0.0621
GAGGCCGC | -0.239
AACTGTAA | 0.155
CCCGGAAC | -0.157
ATCTCATA | -0.0186
AGAGCTTA | -0.0581
CTACCATC | -0.126
CGGACCCG | 0.0458
CGGGCTTA | -0.173

Sequence | PBM E-score
ACCTCATC | 0.0441
ACCTTCAC | -0.041
ATATTATC | 0.0409
GCAAGGGA | 0.109
GATTACAC | -0.0597
AGCGGGTG | -0.0715
CATAGCCA | 0.0564
AGTCGCTA | -0.114
CTAGGCCC | -0.096
CAAGTCCC | -0.112
GTGGGACA | -0.0713
ATGTCCAC | -0.0219
ATCCTATA | 0.12
CACTGAAA | 0.0555
GACCGTAC | -0.266
CGATAATC | -0.071
ACGTCACC | -0.00153
CTCGCTCC | 0.0225
AAATCAAC | 0.0408
ACACCAGG | -0.118
ACGCGGGC | 0.125
AATACGCA | 0.153

Sequence | PBM E-score
AGGTATTC | -0.0326
GTCGCCTA | -0.0434
AGCGAGCA | 0.00354
CCACGGAC | -0.156
CGAGCCAA | -0.0843
ACGGTCCA | -0.162
CCCCGCTC | -0.215
GCTATATA | 0.0573
CGATCAAC | -0.0656
ACCGCCCC | 0.0639
ACATCACG | -0.061
TACACTAA | 0.0945
ATGAGATG | 0.0856
CTTTGCTC | -0.0234
AAAGAGCC | -0.174
ATGGCCTG | -0.0422
AGCTTAAG | -0.0282
TAGCTGAA | 0.0402
GTCTGCAC | -0.0491
AGTTCCCG | 0.0394
AGCAAGAA | 0.0497
AACTAGGC | -0.00972

Sequence | PBM E-score
CGCTTCCG | -0.0404
CAGTCCTA | -0.223
ACCGGACT | -0.131
GAGCCAAC | -0.0523
GAGTTGAC | -0.0655
CAGCGATG | -0.0877
CATCAGAA | 0.0294
AGGGCTGC | -0.0224
GAAACCCC | 0.00642
ATTTCGGA | 0.074
GTGTGTCA | 0.0714
GGGTTTGA | 0.218
GGACACGA | -0.191
ATAACAAT | 0.0175
TAAGGGGA | -0.00292
ACCCCCAC | -0.388
ATCATCGG | -0.0826
GCGCGTTA | 0.213
AGCGTCAA | -0.0325
AGAGTCAT | -0.306

Five entries picked at random from those above, as already listed:
Sequence | PBM E-score
GGGTTTGA | 0.218
AGAGTCAT | -0.306
GTGTGTCA | 0.0714
GAAACCCC | 0.00642
ATAACAAT | 0.0175
